No constants are given. Whether binding was seen depends on the method and setting. Some entries that bind do so weakly or less than the wild type.
Legend:
[1] = molecular target: Annexin A2 (p36) on human monocytes (human) (UniProt P07355); test: flow cytometry on human monocytes (FIGS. 6C, 6D)
[2] = molecular target: S100A10 (p11) on human monocytes (human) (UniProt P60903); test: flow cytometry, FITC-plasmin on human monocytes with or without anti-annexin A2 / anti-p36 / anti-p11 antibodies (FIGS. 3C, 3F)
[3] = molecular target: Annexin A2 (p36) on human monocytes (human) (UniProt P07355); test: as above
[4] = molecular target: Annexin A2 (p36) on human monocytes (human) (UniProt P07355); test: flow cytometry, FITC-plasmin on human monocytes

The chains behind the UniProt entries cited, without tags or fusion partners. Residues count along the entry.
UniProt P07355, residues 2-339: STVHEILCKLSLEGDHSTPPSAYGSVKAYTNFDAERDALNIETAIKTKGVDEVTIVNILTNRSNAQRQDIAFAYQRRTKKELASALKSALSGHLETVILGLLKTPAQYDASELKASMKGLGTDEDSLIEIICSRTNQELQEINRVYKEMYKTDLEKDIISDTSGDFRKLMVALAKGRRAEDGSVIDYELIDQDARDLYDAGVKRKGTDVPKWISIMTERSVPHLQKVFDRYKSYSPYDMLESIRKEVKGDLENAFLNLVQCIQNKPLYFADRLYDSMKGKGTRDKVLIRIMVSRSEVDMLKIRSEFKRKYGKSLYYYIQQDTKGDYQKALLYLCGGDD
UniProt P60903: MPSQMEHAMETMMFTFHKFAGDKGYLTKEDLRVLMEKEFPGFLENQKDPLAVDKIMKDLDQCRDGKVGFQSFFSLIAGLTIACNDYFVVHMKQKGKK
UniProt P00747, residues 97-810: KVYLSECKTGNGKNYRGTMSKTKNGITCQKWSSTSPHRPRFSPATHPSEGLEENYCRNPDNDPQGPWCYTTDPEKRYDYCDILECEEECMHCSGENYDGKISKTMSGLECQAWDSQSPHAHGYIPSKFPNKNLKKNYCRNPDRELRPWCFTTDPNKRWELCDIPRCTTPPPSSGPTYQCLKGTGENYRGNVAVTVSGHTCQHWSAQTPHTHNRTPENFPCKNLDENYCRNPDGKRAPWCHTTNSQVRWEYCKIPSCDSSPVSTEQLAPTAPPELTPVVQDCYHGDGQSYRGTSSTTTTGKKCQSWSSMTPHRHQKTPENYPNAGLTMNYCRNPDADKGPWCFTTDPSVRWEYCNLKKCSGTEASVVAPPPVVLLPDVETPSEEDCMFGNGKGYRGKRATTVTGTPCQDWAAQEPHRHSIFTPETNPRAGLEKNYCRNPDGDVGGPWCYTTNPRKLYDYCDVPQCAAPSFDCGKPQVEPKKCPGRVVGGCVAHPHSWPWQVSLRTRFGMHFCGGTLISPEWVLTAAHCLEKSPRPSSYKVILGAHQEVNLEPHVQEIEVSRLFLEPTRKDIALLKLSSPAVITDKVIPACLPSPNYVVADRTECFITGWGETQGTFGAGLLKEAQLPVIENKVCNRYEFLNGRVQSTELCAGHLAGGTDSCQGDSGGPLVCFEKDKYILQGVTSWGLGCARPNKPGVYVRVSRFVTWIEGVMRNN

binding [1] | binding [2] | binding [3] | binding [4] | Substance
binds | – | – | – | Inactive plasmin, in which the catalytic site had been irreversibly blocked with a peptide inhibitor (from UniProt P00747 97-810) (enzyme)
– | binds | binds | binds | Plasmin (FITC-labeled plasmin in the flow cytometry assays) (from UniProt P00747 97-810) (enzyme)

Source: US20090142330A1, “Use of inactive-plasmin to treat chronic inflammatory disease and tumors” (The Government of the United States of America as …, priority 2007, published 2009)
